From paper PMC6166728, “Structure–function analyses of the bacterial zinc metalloprotease effector protein GtgA uncover key residues required for deactivating NF-κB” (The Journal of Biological Chemistry, 2018)
These are yes or no findings as the source states them, for the method shown. For some of these results: In cells and extracts the contact can be indirect. Some binding calls cover weakened binding; strength is not graded here.

Chains of the proteins cited; added tags and fusions are not shown.
UniProt Q04206: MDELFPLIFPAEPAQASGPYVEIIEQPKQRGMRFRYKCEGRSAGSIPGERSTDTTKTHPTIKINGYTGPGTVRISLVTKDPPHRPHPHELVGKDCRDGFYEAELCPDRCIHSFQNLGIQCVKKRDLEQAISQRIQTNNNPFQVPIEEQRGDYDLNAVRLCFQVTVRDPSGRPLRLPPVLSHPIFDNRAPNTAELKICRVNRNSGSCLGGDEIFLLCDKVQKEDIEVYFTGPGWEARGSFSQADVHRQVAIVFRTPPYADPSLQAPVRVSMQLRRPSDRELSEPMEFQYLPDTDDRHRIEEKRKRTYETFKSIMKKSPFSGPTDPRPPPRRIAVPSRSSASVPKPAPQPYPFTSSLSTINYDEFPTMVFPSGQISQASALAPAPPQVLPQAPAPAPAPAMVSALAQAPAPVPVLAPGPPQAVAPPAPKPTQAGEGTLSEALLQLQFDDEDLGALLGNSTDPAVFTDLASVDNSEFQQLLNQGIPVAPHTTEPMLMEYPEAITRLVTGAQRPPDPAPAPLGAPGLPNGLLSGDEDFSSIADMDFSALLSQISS

Assays:
[1] = molecular target: His6–GST–GtgA^E183A/D159A (Salmonella Typhimurium strain ATCC 14028s); assay: pull-down; LUMIER binding assay: 5 μg purified GST or His6–GST–GtgA variant and GSH–Sepharose 4B incubated 2 h at 4 °C with post-nuclear supernatant of 293ET cells expressing p65–Renilla; 20 mM Tris pH 7.4, 150 mM NaCl, 5% glycerol, 0.1% Triton X-100; eluted with 10 mM GSH, Renilla luciferase activity read; only the target purified
[2] = molecular target: His6–GST–GtgA^E183A/Q192A (Salmonella Typhimurium strain ATCC 14028s); assay: as above
[3] = molecular target: His6–GST–GtgA^E183A/R221A (Salmonella Typhimurium strain ATCC 14028s); assay: as above
[4] = molecular target: His6–GST–GtgA^E183A/S160A (Salmonella Typhimurium strain ATCC 14028s); assay: as above
[5] = molecular target: His6–GST–GtgA^E183A (Salmonella Typhimurium strain ATCC 14028s); assay: as above
[6] = molecular target: GtgA(20–228)^E183Q (Salmonella Typhimurium strain ATCC 14028s); assay: SEC; HiLoad 16/60 Superdex 75, 25 mM HEPES pH 7.5, 150 mM NaCl, 0.5 mM TCEP; GtgA(20–228)^E183Q alone; both purified
[7] = molecular target: GtgA(20–228)^E183Q (Salmonella Typhimurium strain ATCC 14028s); assay: crystal structure; Zn2+-bound GtgA(20–228)^E183Q alone, 24 mg/ml; sitting drop, 20 °C, 0.1 M Tris pH 8.5, 25% (v/v) isopropyl alcohol, 20% (w/v) PEG 3350; two molecules in the asymmetric unit; both purified

| Substance | binding [1] | binding [2] | binding [3] | binding [4] | binding [5] | binding [6] | binding [7] |
| --- | --- | --- | --- | --- | --- | --- | --- |
| p65–Renilla (from UniProt Q04206 1-551) | binds | binds | binds | binds | binds | – | – |
| GtgA(20–228)^E183Q (from UniProt A0A0F6AZI6 20-228) (enzyme) | – | – | – | – | – | no binding | no binding |
